Experimental data: PubChem BioAssay AID1259308 (NCATS, 2017)
Shown is one part, drawn at random, of about 59,000 deposited reagents. Of all reagents, about 1,510 (2.6%) are marked active. 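Calls use total luciferase alone and ignore viability, so some active siRNAs may act by altering cell number.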 The numbers tell different reagents against one gene apart. Further read-outs or replicates are left out here.

Purpose: 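Genes whose loss raises luciferase production in HEK293 cells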 (primary screen)
Cells: human HEK293 embryonic kidney cells stably expressing firefly luciferase (HEK-CMV-Luc2-Hygro)
Reagent: single siRNA against human genes, 0.8 pmol siRNA per well
Timing: 72 h
Read-out: 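Reporter luminescence and viable-cell signal on separate replicate plates, given as percent of non-targeting control and median/MAD z-scores, plus per-cell luciferase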
Reading the numbers: total luciferase, z-score: higher = more reporter protein produced
Call rule: 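Active when the median/MAD z-score for overall luciferase is greater than 3; a gene was taken forward for validation with new siRNAs if at least two of its three siRNAs passed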
Calls: active = raised luciferase; inactive = no rise

no.	gene	siRNA no.	total luciferase, z-score	Call
1	PPP1R12C (GeneID 54776)	1	1.92	inactive
2	PPP1R12C (GeneID 54776)	2	-0.172	inactive
3	PPP1R12C (GeneID 54776)	3	0.0648	inactive
4	TOE1 (GeneID 114034)	1	0.374	inactive
5	TOE1 (GeneID 114034)	2	-0.0741	inactive
6	TOE1 (GeneID 114034)	3	-0.213	inactive
7	FEN1 (GeneID 2237)	1	-1.1	inactive
8	FEN1 (GeneID 2237)	2	-0.264	inactive
9	FEN1 (GeneID 2237)	3	-0.335	inactive
10	CCZ1B (GeneID 221960)	1	0.356	inactive
11	CCZ1B (GeneID 221960)	2	-0.96	inactive
12	CCZ1B (GeneID 221960)	3	0.454	inactive
13	COQ3 (GeneID 51805)	1	2.13	inactive
14	COQ3 (GeneID 51805)	2	0.0618	inactive
15	COQ3 (GeneID 51805)	3	-0.173	inactive
16	CSGALNACT1 (GeneID 55790)	1	-0.821	inactive
17	CSGALNACT1 (GeneID 55790)	2	-0.962	inactive
18	CSGALNACT1 (GeneID 55790)	3	1.54	inactive
19	GPR183 (GeneID 1880)	1	0.327	inactive
20	GPR183 (GeneID 1880)	2	-1.57	inactive
21	GPR183 (GeneID 1880)	3	-0.702	inactive
22	FIGNL2 (GeneID 401720)	1	-0.071	inactive
23	FIGNL2 (GeneID 401720)	2	-0.39	inactive
24	FIGNL2 (GeneID 401720)	3	0.255	inactive
25	RPE (GeneID 6120)	1	0.703	inactive
26	RPE (GeneID 6120)	2	-0.708	inactive
27	RPE (GeneID 6120)	3	0.149	inactive
28	APEX2 (GeneID 27301)	1	2.76	inactive
29	APEX2 (GeneID 27301)	2	-1.08	inactive
30	APEX2 (GeneID 27301)	3	-0.885	inactive

Not a retest: entries from further up.
no.	gene	siRNA no.	total luciferase, z-score	Call
15	COQ3 (GeneID 51805)	3	-0.173	inactive
16	CSGALNACT1 (GeneID 55790)	1	-0.821	inactive
17	CSGALNACT1 (GeneID 55790)	2	-0.962	inactive
18	CSGALNACT1 (GeneID 55790)	3	1.54	inactive
19	GPR183 (GeneID 1880)	1	0.327	inactive
20	GPR183 (GeneID 1880)	2	-1.57	inactive
21	GPR183 (GeneID 1880)	3	-0.702	inactive

The results go on:
no.	gene	siRNA no.	total luciferase, z-score	Call
31	SUGT1P4-STRA6LP-CCDC180 (GeneID 57653)	1	0.609	inactive
32	SUGT1P4-STRA6LP-CCDC180 (GeneID 57653)	2	-0.783	inactive
33	SUGT1P4-STRA6LP-CCDC180 (GeneID 57653)	3	1.86	inactive
34	KIF24 (GeneID 347240)	1	-0.825	inactive
35	KIF24 (GeneID 347240)	2	-0.636	inactive
36	KIF24 (GeneID 347240)	3	-0.398	inactive
37	PPDPF (GeneID 79144)	1	0.84	inactive
38	PPDPF (GeneID 79144)	2	0.327	inactive
39	PPDPF (GeneID 79144)	3	2.18	inactive
40	TET1P1 (GeneID 441662)	1	0.326	inactive
41	TET1P1 (GeneID 441662)	2	-0.361	inactive
42	TET1P1 (GeneID 441662)	3	2.4	inactive
43	PCDHGA5 (GeneID 56110)	1	0.163	inactive
44	PCDHGA5 (GeneID 56110)	2	1.88	inactive
45	PCDHGA5 (GeneID 56110)	3	1.38	inactive
46	COPZ1 (GeneID 22818)	1	0.659	inactive
47	COPZ1 (GeneID 22818)	2	3.06	active
48	COPZ1 (GeneID 22818)	3	-1.78	inactive
49	MRPL38 (GeneID 64978)	1	0.208	inactive
50	MRPL38 (GeneID 64978)	2	-1.35	inactive
51	MRPL38 (GeneID 64978)	3	-0.301	inactive
52	CAD (GeneID 790)	1	2.25	inactive
53	CAD (GeneID 790)	2	1.23	inactive
54	CAD (GeneID 790)	3	0.972	inactive
55	DNAH5 (GeneID 1767)	1	-0.432	inactive
56	DNAH5 (GeneID 1767)	2	-1.58	inactive
57	DNAH5 (GeneID 1767)	3	-0.135	inactive
